According to the supplement of paper PMC12067093, “Discovery and optimisation of a covalent ligand for TRIM25 and its application to targeted protein ubiquitination” (Chemical Science, 2025):
Some of the results follow.

Chains of the proteins cited; added tags and fusions are not shown. Lines headed by an entry give the natural chain unless they say otherwise; changes in a name come on top.
UniProt Q96BR5: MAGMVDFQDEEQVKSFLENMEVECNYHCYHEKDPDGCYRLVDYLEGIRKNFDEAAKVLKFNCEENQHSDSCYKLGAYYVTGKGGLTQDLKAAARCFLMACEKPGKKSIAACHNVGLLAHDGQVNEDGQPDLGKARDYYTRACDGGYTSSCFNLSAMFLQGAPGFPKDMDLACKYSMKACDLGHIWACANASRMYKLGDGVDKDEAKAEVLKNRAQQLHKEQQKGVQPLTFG
UniProt P31146: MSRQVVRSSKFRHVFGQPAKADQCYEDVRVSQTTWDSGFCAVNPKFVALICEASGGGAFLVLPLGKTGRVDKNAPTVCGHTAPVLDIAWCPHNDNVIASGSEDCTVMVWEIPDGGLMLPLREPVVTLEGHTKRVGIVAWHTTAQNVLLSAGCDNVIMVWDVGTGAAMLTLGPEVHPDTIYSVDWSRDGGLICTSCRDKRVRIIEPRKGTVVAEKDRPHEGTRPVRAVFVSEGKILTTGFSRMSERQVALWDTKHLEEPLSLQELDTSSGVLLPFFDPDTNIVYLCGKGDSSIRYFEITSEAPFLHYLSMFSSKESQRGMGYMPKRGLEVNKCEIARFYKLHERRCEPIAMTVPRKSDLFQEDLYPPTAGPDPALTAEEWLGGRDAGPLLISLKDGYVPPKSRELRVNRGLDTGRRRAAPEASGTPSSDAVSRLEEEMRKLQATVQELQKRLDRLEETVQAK
UniProt Q9H9A5, whole entry, looked up: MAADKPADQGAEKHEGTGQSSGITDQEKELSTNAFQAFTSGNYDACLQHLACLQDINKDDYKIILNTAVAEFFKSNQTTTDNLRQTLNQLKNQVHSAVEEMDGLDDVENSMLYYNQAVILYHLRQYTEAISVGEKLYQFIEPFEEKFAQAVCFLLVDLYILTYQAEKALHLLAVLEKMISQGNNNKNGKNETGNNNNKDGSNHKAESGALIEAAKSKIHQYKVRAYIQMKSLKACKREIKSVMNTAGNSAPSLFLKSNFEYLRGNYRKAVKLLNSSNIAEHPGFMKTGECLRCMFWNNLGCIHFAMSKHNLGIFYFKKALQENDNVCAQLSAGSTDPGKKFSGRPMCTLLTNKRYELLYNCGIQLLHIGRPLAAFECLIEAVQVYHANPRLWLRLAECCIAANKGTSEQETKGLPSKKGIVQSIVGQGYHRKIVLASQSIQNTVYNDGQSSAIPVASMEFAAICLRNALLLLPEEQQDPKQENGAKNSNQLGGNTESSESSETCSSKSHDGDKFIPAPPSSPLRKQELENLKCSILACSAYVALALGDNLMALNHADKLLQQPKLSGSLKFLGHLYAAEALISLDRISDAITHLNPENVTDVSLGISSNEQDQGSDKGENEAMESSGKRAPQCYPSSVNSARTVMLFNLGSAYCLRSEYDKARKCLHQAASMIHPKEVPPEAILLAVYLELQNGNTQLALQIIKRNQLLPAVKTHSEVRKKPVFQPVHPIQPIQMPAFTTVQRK
UniProt P49747: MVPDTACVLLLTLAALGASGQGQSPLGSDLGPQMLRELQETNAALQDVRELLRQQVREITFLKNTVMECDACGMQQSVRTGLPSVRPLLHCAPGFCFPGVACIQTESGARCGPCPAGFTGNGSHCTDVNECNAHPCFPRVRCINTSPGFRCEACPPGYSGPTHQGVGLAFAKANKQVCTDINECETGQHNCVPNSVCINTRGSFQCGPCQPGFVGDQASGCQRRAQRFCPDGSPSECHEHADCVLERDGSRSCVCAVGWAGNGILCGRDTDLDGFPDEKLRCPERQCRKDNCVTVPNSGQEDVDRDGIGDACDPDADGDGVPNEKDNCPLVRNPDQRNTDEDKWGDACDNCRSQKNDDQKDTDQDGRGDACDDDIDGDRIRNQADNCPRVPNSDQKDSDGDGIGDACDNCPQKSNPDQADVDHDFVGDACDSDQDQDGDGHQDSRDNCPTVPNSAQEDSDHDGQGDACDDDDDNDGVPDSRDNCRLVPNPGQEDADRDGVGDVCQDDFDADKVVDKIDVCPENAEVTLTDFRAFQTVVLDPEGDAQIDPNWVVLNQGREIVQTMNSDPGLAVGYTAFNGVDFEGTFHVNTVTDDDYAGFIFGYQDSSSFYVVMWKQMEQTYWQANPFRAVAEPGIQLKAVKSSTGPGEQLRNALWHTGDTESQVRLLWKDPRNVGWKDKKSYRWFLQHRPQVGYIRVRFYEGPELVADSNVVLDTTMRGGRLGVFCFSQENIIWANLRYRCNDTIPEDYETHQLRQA
UniProt P35606: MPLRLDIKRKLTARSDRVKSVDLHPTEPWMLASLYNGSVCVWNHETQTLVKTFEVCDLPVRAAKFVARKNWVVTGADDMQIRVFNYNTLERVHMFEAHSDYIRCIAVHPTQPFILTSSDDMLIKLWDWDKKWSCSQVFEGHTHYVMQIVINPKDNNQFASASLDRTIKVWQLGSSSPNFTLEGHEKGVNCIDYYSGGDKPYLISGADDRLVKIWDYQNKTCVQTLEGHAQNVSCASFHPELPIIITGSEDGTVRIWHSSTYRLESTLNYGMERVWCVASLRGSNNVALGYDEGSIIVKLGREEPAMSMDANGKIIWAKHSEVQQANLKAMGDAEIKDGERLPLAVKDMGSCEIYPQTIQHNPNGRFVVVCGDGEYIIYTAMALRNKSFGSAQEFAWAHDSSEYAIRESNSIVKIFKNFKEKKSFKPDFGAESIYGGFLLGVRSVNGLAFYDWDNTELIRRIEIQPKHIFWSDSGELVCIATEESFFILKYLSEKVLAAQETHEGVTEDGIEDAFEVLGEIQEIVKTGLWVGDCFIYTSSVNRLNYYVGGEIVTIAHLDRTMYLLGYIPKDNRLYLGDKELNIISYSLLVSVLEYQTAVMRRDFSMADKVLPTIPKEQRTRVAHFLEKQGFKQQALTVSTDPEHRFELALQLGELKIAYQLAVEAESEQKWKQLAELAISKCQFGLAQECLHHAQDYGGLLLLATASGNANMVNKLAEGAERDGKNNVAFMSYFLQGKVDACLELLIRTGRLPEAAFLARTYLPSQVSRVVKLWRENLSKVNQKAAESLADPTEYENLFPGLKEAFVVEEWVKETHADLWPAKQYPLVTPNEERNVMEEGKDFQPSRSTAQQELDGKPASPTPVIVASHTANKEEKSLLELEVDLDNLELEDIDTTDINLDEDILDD
UniProt P53621: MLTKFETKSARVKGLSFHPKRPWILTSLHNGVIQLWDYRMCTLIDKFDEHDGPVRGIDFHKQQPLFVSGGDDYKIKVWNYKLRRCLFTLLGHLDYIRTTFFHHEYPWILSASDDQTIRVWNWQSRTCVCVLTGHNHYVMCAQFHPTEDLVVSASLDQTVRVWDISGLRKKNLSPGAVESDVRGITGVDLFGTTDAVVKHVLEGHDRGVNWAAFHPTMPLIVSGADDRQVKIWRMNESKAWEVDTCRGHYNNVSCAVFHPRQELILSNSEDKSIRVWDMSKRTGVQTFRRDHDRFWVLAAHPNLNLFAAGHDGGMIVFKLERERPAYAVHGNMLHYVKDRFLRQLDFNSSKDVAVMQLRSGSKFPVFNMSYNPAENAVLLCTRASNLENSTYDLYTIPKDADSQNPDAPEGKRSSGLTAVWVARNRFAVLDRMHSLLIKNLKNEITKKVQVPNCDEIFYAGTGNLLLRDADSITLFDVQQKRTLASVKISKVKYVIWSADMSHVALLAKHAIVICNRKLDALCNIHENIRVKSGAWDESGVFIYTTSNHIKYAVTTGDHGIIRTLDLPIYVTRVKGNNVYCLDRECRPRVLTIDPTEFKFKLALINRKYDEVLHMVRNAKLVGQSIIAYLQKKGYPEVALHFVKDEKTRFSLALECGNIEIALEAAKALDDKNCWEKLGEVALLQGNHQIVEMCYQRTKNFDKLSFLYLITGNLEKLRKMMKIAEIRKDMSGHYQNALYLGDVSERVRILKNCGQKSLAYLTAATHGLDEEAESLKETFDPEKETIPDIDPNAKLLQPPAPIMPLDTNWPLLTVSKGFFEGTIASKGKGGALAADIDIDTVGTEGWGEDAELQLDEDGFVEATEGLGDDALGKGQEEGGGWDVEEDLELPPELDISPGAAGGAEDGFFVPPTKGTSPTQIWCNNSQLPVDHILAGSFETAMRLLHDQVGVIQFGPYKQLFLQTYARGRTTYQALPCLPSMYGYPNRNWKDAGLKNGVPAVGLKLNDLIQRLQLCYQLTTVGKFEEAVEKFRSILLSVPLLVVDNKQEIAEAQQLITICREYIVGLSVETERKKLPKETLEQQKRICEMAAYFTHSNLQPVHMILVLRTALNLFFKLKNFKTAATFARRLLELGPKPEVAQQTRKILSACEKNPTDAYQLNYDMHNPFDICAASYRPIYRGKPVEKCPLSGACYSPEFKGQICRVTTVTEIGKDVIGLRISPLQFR
UniProt Q96MW5: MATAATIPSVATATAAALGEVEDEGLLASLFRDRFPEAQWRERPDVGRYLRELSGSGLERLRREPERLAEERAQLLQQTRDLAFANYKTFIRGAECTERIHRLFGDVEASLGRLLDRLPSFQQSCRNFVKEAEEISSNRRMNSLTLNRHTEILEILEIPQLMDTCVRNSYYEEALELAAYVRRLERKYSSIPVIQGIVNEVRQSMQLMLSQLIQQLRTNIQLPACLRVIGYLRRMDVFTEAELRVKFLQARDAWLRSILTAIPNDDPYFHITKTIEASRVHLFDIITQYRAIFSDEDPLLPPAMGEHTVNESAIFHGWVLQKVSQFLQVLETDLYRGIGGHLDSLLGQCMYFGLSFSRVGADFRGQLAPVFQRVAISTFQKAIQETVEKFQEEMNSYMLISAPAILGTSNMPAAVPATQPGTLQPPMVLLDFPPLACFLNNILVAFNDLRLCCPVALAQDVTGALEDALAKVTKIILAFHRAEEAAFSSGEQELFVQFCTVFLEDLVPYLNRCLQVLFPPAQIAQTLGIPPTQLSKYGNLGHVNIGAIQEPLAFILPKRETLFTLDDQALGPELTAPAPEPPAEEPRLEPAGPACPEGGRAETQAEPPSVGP
UniProt Q9UBF2: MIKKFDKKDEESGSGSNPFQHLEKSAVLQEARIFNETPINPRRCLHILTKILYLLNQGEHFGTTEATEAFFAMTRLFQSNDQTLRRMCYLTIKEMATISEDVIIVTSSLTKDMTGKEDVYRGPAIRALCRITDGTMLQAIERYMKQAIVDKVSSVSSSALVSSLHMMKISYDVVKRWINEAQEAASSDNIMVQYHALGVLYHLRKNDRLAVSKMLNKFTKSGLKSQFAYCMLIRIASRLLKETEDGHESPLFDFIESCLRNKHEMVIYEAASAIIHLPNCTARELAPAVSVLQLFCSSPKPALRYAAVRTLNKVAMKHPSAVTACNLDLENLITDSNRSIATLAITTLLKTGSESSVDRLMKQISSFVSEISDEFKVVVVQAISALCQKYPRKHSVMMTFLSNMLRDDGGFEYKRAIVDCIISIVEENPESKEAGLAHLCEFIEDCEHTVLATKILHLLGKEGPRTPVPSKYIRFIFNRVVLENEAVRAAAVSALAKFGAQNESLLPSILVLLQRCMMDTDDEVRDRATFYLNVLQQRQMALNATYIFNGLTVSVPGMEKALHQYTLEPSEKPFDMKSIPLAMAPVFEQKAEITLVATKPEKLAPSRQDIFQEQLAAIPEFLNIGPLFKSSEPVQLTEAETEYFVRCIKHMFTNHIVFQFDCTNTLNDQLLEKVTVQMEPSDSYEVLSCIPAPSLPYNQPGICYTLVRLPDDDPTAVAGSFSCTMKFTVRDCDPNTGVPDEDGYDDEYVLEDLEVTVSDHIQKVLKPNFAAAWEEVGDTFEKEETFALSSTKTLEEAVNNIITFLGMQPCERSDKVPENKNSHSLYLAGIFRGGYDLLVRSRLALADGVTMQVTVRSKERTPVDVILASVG

Compound: Cc1cc(ccc1-c1ccccc1)C(=O)N1CCCN(CC1)C(=O)CCl [compound 10]
Test: probe-labelled cysteine peptide fold change vs DMSO (competition) (log2 fold change); higher = less target engagement (more negative = stronger competition)
Details: THP-1, incubation time: 4 h
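Further: competitive profiling in live THP-1 cells: cysteine peptides tagged with an iodoacetamide desthiobiotin (IA-DTB) probe, intensity after compound treatment relative to DMSO-treated cells.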

Row | Target | probe-labelled cysteine peptide fold change (10 µM) | probe-labelled cysteine peptide fold change (50 µM)
1 | COA7_Q96BR5_111_SIAACHNVGLLAHDGQVNEDGQPDLGK (UniProt Q96BR5) | -0.0863 | -0.023
2 | CORO1A_P31146_192+195_DGGLICTSCR (UniProt P31146) | -0.144 | -0.557
3 | COL18A1_P39060_1604_GADFQCFQQAR (UniProt P39060) | -0.199 | -0.187
4 | CNOT10_Q9H9A5_399_LAECCIAANK (UniProt Q9H9A5) | -0.0283 | 0.104
5 | CORO1A_P31146_332_RGLEVNKCEIAR (UniProt P31146) | -0.447 | -0.96
6 | COMP_P49747_520_VVDKIDVCPENAEVTLTDFR (UniProt P49747) | -0.456 | -0.435
7 | COPB2_P35606_190_GVNCIDYYSGGDKPYLISGADDR (UniProt P35606) | -0.00395 | 0.000653
8 | COPA_P53621_522_LDALCNIHENIR (UniProt P53621) | -0.0242 | 0.218
9 | COG8_Q96MW5_165_HTEILEILEIPQLMDTCVR (UniProt Q96MW5) | 0.0366 | 0.124
10 | COPG2_Q9UBF2_440_EAGLAHLCEFIEDCEHTVLATK (UniProt Q9UBF2) | -0.0268 | -0.107
11 | COPG2_Q9UBF2_296_ELAPAVSVLQLFCSSPK (UniProt Q9UBF2) | 0.112 | 0.0808

Quoted at random: two entries already listed, in no set order.
Row | Target | probe-labelled cysteine peptide fold change (10 µM) | probe-labelled cysteine peptide fold change (50 µM)
8 | COPA_P53621_522_LDALCNIHENIR (UniProt P53621) | -0.0242 | 0.218
10 | COPG2_Q9UBF2_440_EAGLAHLCEFIEDCEHTVLATK (UniProt Q9UBF2) | -0.0268 | -0.107
